These are yes or no findings as the source states them, for the method shown. For some of these results: In cells and extracts the contact can be indirect. Some results given as binding are weak or reduced against the parent protein; the word gives no strength.

Sequences of proteins named here, by UniProt entry; tags and fusion partners are left off.
UniProt O81283: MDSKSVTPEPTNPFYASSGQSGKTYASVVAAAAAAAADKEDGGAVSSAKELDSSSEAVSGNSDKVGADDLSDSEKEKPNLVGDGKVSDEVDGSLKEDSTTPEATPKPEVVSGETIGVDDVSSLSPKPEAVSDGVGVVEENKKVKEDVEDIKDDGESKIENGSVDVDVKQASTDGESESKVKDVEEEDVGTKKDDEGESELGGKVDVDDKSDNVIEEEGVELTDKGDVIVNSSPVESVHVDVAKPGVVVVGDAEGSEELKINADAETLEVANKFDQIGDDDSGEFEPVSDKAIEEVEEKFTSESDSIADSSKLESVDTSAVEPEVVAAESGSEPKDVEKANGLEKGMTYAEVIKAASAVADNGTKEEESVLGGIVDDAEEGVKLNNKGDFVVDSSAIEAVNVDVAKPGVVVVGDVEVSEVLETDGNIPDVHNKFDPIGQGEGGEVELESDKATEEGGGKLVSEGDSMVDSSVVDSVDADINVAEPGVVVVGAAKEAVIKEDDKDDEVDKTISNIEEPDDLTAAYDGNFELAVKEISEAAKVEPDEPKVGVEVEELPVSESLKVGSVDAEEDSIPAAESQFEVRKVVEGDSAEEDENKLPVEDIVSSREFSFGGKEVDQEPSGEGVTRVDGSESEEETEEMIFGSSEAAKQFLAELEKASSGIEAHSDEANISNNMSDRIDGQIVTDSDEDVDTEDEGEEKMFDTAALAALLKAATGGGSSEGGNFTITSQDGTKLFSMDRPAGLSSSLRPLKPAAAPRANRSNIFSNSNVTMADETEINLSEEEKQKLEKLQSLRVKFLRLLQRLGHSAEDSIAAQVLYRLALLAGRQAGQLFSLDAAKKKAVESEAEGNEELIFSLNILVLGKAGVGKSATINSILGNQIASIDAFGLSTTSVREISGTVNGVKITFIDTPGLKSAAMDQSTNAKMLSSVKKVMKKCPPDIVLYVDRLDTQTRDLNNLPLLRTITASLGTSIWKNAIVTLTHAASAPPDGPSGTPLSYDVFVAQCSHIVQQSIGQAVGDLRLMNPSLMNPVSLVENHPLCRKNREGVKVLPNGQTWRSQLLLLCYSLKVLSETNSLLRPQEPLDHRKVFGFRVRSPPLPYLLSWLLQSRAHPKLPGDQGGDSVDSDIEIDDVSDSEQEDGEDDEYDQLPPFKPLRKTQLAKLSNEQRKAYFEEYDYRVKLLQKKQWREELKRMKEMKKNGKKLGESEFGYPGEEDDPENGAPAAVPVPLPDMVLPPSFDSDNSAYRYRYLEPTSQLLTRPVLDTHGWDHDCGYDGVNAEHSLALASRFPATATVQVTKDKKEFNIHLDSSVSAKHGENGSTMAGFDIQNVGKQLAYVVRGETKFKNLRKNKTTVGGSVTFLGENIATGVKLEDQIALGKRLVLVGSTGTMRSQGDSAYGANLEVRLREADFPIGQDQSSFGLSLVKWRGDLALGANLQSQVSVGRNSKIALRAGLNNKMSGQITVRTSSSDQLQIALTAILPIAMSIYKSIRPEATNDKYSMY

Assay [1] addresses T1, Toc33 (Arabidopsis thaliana (endogenous in chloroplasts)) (UniProt O23680).
T1 sequence: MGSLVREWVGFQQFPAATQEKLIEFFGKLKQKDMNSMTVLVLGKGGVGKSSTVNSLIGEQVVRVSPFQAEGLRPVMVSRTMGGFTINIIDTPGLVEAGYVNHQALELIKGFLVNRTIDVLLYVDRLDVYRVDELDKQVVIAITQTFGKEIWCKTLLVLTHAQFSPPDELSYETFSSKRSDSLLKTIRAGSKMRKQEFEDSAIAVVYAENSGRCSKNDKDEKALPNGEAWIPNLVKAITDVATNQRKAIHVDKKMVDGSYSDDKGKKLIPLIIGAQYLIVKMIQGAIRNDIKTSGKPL
The experiment in a line: native gel or EMSA; 2D blue-native PAGE: chloroplast membranes solubilised in 1% decylmaltoside, 4-12% BN-PAGE at 4°C, then 5-12% SDS-PAGE and immunoblotting; co-migration. (In general: In EMSA bound probe runs differently from free probe, usually more slowly.)

Assay [2] has as its target T1, Toc33 (Arabidopsis thaliana (endogenous in chloroplasts)). The experiment in a line: co-IP; immunoaffinity chromatography of detergent-soluble chloroplast membranes from TOC75, TOC75ΔP1#2 and TOC75ΔP1-2#2 plants on anti-atToc33 Sepharose under native conditions; eluates immunoblotted. (In western blotting, separated proteins are transferred to a membrane and probed.)

The target in assay [3] is Toc159 (Arabidopsis thaliana (endogenous in chloroplasts)) (UniProt O81283). Description: native gel or EMSA; 2D blue-native PAGE: chloroplast membranes solubilised in 1% decylmaltoside, 4-12% BN-PAGE at 4°C, then 5-12% SDS-PAGE and immunoblotting; co-migration.

Turning to “Toc159 (from UniProt O81283 1-1503) (receptor)”, the binding entry in assay [1] and in assay [2] was “binds” throughout.

B1: Tic110 (protein, UniProt Q8LPR9 52-1016)
chain: SAASSDQLSVSTQAKNPGIHGNKKELTGLQPIVEKMTPPVRLATSAVVLAASLATGYGLGLRLAGSRNIAFGGAAVAGAAGGAVVYALNSAVPEVAAISLHNYVAEFEDPASVTKDDVEKIADRYGVNKGDEAFQAEICDIYCRYVTSVLPTEGQSLKGDEVAKIVKFKNALGIDEPDAAAMHMEIGRRIFRQRLETGEREGDAEQRRAFMRLVYVSALVFGDASSFLLPWKRVLKVTDAQVEIAIRENAKQLYAERLKLVGRDINVENLVDLRKSQLSFKLSDELAEDLFREHTRKVVVENISSALSILKSRTRAAKSLASVVEELEKVLEFNNLLVSLKSHSEADQFARGVGPISLIGDESDFERRMDDLKLLYRAYVTDALSGGRLEENKLVAMSQLRNILGLGKREAEAISVDVTSKSYRKRLANAVSSGDLEAQDSKAKYLQKLCEELHFDAQKAGAIHEEIYRQKLQQCVTDGELSDDNVAALLRLRVMLCIPQQTVDTAHAEICGTIFEKVVRDAISSGVDGYDAETRKSVRKAAHGLRLSRETAMSIASKAVRRVFTNYIRRARAAENRTDSAKELKKMIAFNTLVVTEMVADIKGESSDKAPEEDPVQEKEEDDEDEEWGSLESLRKTRPDKELAEKMGKPGQTEITLKDDLPDRDRIDLYKTYLLYCVTGEVTRIPFGAQITTKRDDSEYLLLNQLGGILGLSSKEIVNIHVGLAEQAFRQQAEVILADGQLTKARVEQLDELQKQVGLPQPQAEKVIKNITTTKMANAIETAVNQGRLNIKQIRELKEANVSLDSMIAVSLREKLFKKTVSDIFSSGTGEFDETEVYQTIPSDLSIDVEKAKRVVHDLAQSRLSNSLVQAVALLRQRNSKGVVLSLNDLLACDKAVPAEPMSWEVSEELSDLYAIYSKSDPKPAPEKVLRLQYLLGIDDSTATALREMEDGALSSAAEEGNFVF
For B1, in assay [2], the binding entry was “binds”.

B2: OEP80 (protein, UniProt Q9C5J8 1-732)
chain: MHCHNDDVRFSSSSIRIHSPSPKEQHSLLTNLQSCSKTFVSHLSNTRNSLNQMLQSLKNRHTPPPRSVRRPNLPTQMLNSVTQLMIGKSSPISLSLIQSTQFNWSESRDENVETIRGLSSPLLCCASLSLTRPNESTQSVEGKDTVQQQKGHSVSRNAEERVLISEVLVRTKDGEELERKDLEMEALAALKACRANSALTIREVQEDVHRIIESGYFCSCTPVAVDTRDGIRLMFQVEPNQEFRGLVCENANVLPSKFIHEAFRDGFGKVINIKRLEEAITSINGWYMERGLFGIVSDIDTLSGGIVRLQVAEAEVNNISIRFLDRKTGEPTKGKTSPETILRQLTTKKGQVYSMLQGKRDVDTVLAMGIMEDVSIIPQPAGDSGKVDLIMNCVERPSGGFSAGGGISSGITSGPLSGLIGSFAYSHRNLFGRNQKLNVSLERGQIDSIFRINYTDPWIEGDDKRTSRSIMVQNSRTPGNLVHGNQPDNSSLTIGRVTAGVEYSRPFRPKWNGTAGLIFQHAGARDEQGNPIIKDFYSSPLTASGKPHDETMLAKLESIYTGSGDQGSTMFAFNMEQGLPVLPEWLCFNRVTGRARKGIHIGPARFLFSLSGGHVVGKFSPHEAFVIGGTNSVRGYEEGAVGSGRSYVVGSGELSFPVRGPVEGVIFTDYGTDMGSGSTVPGDPAGARLKPGSGYGYGLGVRVDSPLGPLRLEYAFNDQHAGRFHFGVGLRN
Regarding B2, the binding entry in assay [2] was “no binding”.

B3: Toc75 (full-length, native) (protein, UniProt Q9STE8 141-818)
chain: DEEQSPDWDSHGLPANIVVQLNKLSGFKKYKVSDIMFFDRRRQTTIGTEDSFFEMVSIRPGGVYTKAQLQKELETLATCGMFEKVDLEGKTKPDGTLGVTISFAESTWQSADRFRCINVGLMVQSKPIEMDSDMTDKEKLEYYRSLEKDYKRRIDRARPCLLPAPVYGEVMQMLRDQGKVSARLLQRIRDRVQKWYHDEGYACAQVVNFGNLNTKEVVCEVVEGDITQLVIQFQDKLGNVVEGNTQVPVVRRELPKQLRQGYVFNIEAGKKALSNINSLGLFSNIEVNPRPDEKNEGGIIVEIKLKELEQKSAEVSTEWSIVPGRGGAPTLASFQPGGSVTFEHRNLQGLNRSLMGSVTTSNFLNPQDDLSFKLEYVHPYLDGVYNPRNRTFKTSCFNSRKLSPVFTGGPGVEEVPPIWVDRAGVKANITENFTRQSKFTYGLVMEEITTRDESSHIAANGQRLLPSGGISADGPPTTLSGTGVDRMAFLQANITRDNTKFVNGAVVGQRTVFQVDQGLGIGSKFPFFNRHQLTMTKFIQLREVEQGAGKSPPPVLVLHGHYGGCVGDLPSYDAFVLGGPYSVRGYNMGELGAARNIAEVGAEIRIPVKNTHVYAFVEHGNDLGSSKDVKGNPTAVYRRTGQGSSYGAGVKLGLVRAEYAVDHNNGTGALFFRFGERY
For B3, the binding result in assay [3], in assay [1] and in assay [2] was “binds” throughout.

The values are drawn from paper PMC4811774.
